Here are results for two molecules from article PMC4850266.

The chains behind the UniProt entries cited, without tags or fusion partners.
UniProt Q6FMA3: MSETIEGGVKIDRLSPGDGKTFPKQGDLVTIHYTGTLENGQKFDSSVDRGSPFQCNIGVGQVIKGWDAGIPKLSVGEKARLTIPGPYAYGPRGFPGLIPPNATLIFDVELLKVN

Assay [1] deals with C. glabrata FKBP12 (Candida glabrata) (UniProt Q6FMA3). In words: crystal structure; apo C. glabrata FKBP12, 2.65 Å; crystal packing examined; both purified.
Assay [2] deals with C. albicans FKBP12 (Candida albicans) (UniProt P28870). In words: crystal structure; apo C. albicans FKBP12, three crystal forms (P1, P2(1)2(1)2, C2) from different conditions, ~10 mg/ml protein; resolutions 1.99, 2.3 and 2.4 Å; intermolecular contact seen in the crystal packing; both purified.

Results are given in words; binding and its absence hold for the method and conditions named. Some results given as binding are weak or reduced against the parent protein; the word gives no strength.

On to “C. glabrata FKBP12 (from UniProt Q6FMA3 1-114) (enzyme)”, for which the binding result in assay [1] was “no binding”.

B1: C. albicans FKBP12 (enzyme, UniProt P28870 1-124)
chain: MSEELPQIEIVQEGDNTTFAKPGDTVTIHYDGKLTNGKEFDSSRKRGKPFTCTVGVGQVIKGWDISLTNNYGKGGANLPKISKGTKAILTIPPNLAYGPRGIPPIIGPNETLVFEVELLGVNGQ
Consider B1, for which the binding result in assay [2] is recorded as “binds weakly”.
